{
  "source": "patent US20150104528A1",
  "about": "“TREATMENT FOR DEPRESSION AND OTHER MENTAL CONDITIONS WITH SYNTHETIC ISOTOPE-MODIFIED LITHIUM” (priority 2013, published 2015)",
  "origin": "cited, not measured here",
  "tested_on": "female mother rats",
  "settings": "female mother rats fed the substance; same dosage level for both groups",
  "note": "At least one structure is not confirmed: it was looked up by name or label, or the drawing left a doubt.",
  "data": [
    {"smiles": "[Li]", "note": "[lithium]", "values": [
      {"measurement": "state of alertness compared to control rats fed a placebo", "value": "low"}
    ]}
  ]
}
